{"source": "PubChem BioAssay AID1347131", "about": "(National Center for Advancing Translational Sciences (NCATS), 2019)", "note": "Screen size: about 410,000 compounds; about 2,000 (0.49%) were called active. The inconclusive results got no clear call from the source; some entries with a clear call stand among them for comparison. Calls come from the whole dose curve; tested in HEK293 reporter line. Potencies beside an inconclusive call are fits to weak or partial responses and may not hold up. Potency is the fitted concentration of half-maximal effect.", "data": [{"experiment": "qHTS Assay for Foot and Mouth Disease Virus Antivirals: Primary Screen against the MLPCN compound library; note: nearly all actives have a fitted effect of over 55% in size", "details": "FMDV antiviral cell-based qHTS; activity, negative = inhibition: at 57.9 µM (top of the series)", "values": [{"smiles": "Cc1cccc(NC(=O)CSc2nnc(NC(=O)CN3CCOCC3)s2)c1", "Potency": "inactive"}, {"smiles": "CCC(=NNc1ccc([N+](=O)[O-])cc1[N+](=O)[O-])c1ccccc1", "Potency": "inconclusive: 4.47 µM [inhibitor, full curve]"}, {"smiles": "COc1ccc(-c2csc(NC(=O)C3CCCCN3S(=O)(=O)c3ccccc3)n2)cc1", "note": "(stereo unspecified)", "activity, negative = inhibition": "inconclusive: -63% [inhibitor]"}, {"smiles": "COc1ccc(CNC(=O)CSCc2cnn(-c3ccccc3)c2-n2cccc2)cc1OC", "Potency": "inconclusive: 15.8 µM [inhibitor, partial curve, poor fit]"}, {"smiles": "O=C(/C=C/c1ccco1)Nc1ccccc1C(=O)O", "Potency": "inconclusive: 17.8 µM [inhibitor, single point]"}, {"smiles": "CC(C)(C)[C@@H]1C=C(C(=O)Nc2ccccc2)O[C@H](OCc2ccc(CO)cc2)C1", "Potency": "inconclusive: 14.1 µM [inhibitor, partial curve]"}, {"smiles": "O=C(Nn1cnnc1)c1ccc(F)cc1", "activity, negative = inhibition": "inconclusive: -33.2% [inhibitor]"}, {"smiles": "COc1ccc(Cn2c(=O)[nH]c3cc(C(=O)N4CCN(Cc5ccccc5)CC4)ccc3c2=O)cc1", "Potency": "inconclusive: 14.1 µM [inhibitor, partial curve, poor fit]"}, {"smiles": "CCc1noc(C)c1C(=O)Nc1nc(-c2ccc(NC(C)=O)cc2)cs1", "Potency": "inconclusive: 22.4 µM [inhibitor, partial curve, poor fit]"}, {"smiles": "Cc1nn(-c2ccccc2)c(N)c1Sc1ccc([N+](=O)[O-])cc1", "Potency": "inconclusive: 31.6 µM [inhibitor, partial curve, poor fit]"}, {"smiles": "COc1cc(/C=C2\\C(=O)ON=C2c2ccccc2)cc(OC)c1OC", "Potency": "inconclusive: 25.1 µM [inhibitor, partial curve, poor fit]"}, {"smiles": "COc1ccc(CNc2nc3c(c(=O)n(Cc4ccc(Cl)cc4)c(=O)n3C)n2C)cc1", "Potency": "inconclusive: 12.6 µM [inhibitor, partial curve, poor fit]"}, {"smiles": "CCCCCc1ccc(OCCC[n+]2ccccc2)c(CCCCC)c1", "Potency": "inconclusive: 17.8 µM [inhibitor, partial curve, poor fit]"}, {"smiles": "COc1cc(NC(=O)c2noc3c2CCc2ccccc2-3)cc(OC)c1OC", "Potency": "inactive"}, {"smiles": "O=C(Nc1nc2ccc(F)cc2s1)C1CCN(S(=O)(=O)c2cc([N+](=O)[O-])ccc2Cl)CC1", "Potency": "inconclusive: 20 µM [inhibitor, partial curve, poor fit]"}, {"smiles": "CCn1c(SCc2ccc(C(=O)Nc3cc(C)cc(C)c3)cc2)nnc1-c1ccncc1", "Potency": "inconclusive: 17.8 µM [inhibitor, partial curve, poor fit]"}]}]}
